# Measured data: PubChem BioAssay AID1259254 (NCATS, 2017)
# Test: 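Gene knock-downs that lead to re-replication, shown by excess G2 DNA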 (primary screen)
# Cell system: human HCT116 colorectal cancer cells
# Knock-down reagent: single siRNA against human genes
# Duration: 3 days
# Measured: 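Nuclei stained with Hoechst and imaged; cell-cycle phase assigned by DNA content; G2 share scaled per plate, non-targeting siRNA 0%, GMNN siRNA 100%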
# Reading the numbers: G2 robust z-score: higher = more G2 cells, more excess DNA replication
# Active means: 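Active siRNAs have a G2 robust z of 5 or more median absolute deviations over the median, which in these data means about 38% or higher of GMNN control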
# This is one part, drawn at random, of about 59,000 reagents. Of all reagents, about 1,550 (2.6%) got an active call. 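G2 share is only a proxy for re-replication; each gene was hit by three separate siRNAs, and active genes were retested.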 Entries without a mark were called inactive. Reagents against one gene are numbered here. Not all columns of the deposit are shown. Not given: the amount of reagent.
The first 7 records, ahead of the listing:
gene,siRNA no.,G2 robust z-score
EIF3L,1,1.65
EIF3L,2,1.02
EIF3L,3,2.67
DEFB125,1,-0.608
DEFB125,2,0.758
DEFB125,3,-0.281
G6PC1,1,0.00497

The listing, repeating the preview:
gene,siRNA no.,G2 robust z-score
EIF3L,1,1.65
EIF3L,2,1.02
EIF3L,3,2.67
DEFB125,1,-0.608
DEFB125,2,0.758
DEFB125,3,-0.281
G6PC1,1,0.00497
G6PC1,2,-1.63
G6PC1,3,0.952
BLTP3B,1,-0.454
BLTP3B,2,-0.539
BLTP3B,3,0.17
TMEM63C,1,-0.21
TMEM63C,2,-0.555
TMEM63C,3,1.61
VPREB3,1,0.565
VPREB3,2,0.316
VPREB3,3,-0.728
TXLNA,1,0.428
TXLNA,2,-0.611
TXLNA,3,-0.24
GNB4,1,-0.501
GNB4,2,-1.28
GNB4,3,-0.483
PKP1,1,2.82
PKP1,2,-0.17
PKP1,3,1.06
AOC3,1,4.08
AOC3,2,0.858
AOC3,3,-1.31
TYRO3,1,-0.734
TYRO3,2,2.06
TYRO3,3,-0.482
CDO1,1,0.72
CDO1,2,0.492
CDO1,3,1.93
VPS52,1,1.5
VPS52,2,0.245
VPS52,3,-0.466
KIAA1549,1,-0.432
KIAA1549,2,-0.123
KIAA1549,3,-0.892
SLC26A9,1,7.95 (active)
SLC26A9,2,-0.211
SLC26A9,3,-0.919
PREP,1,-0.0984
PREP,2,-0.238
PREP,3,0.136
NXPE3,1,6.02 (active)
NXPE3,2,-0.291
NXPE3,3,0.965
GPR17,1,-0.105
GPR17,2,-1.07
GPR17,3,1.68
RET,1,-0.00975
RET,2,-0.862
RET,3,-0.586
PLEKHG6,1,0.172
PLEKHG6,2,2.96
PLEKHG6,3,-0.369
SUMO4,1,1.66
SUMO4,2,0.988
SUMO4,3,3.27
RTP4,1,2.19
RTP4,2,-0.681
RTP4,3,-0.648
FMNL1-DT,1,2.16
FMNL1-DT,2,0.135
FMNL1-DT,3,-0.834
